Results: article PMC12504691
No constants are given. Whether binding was seen depends on the method and setting. In cells and extracts the contact can be indirect. A yes stands for co-enrichment or nearness to the bait. Other partners may have been found.

Biological target: Estrogen receptor alpha (ESR1) (UniProt P03372)
Assay: affinity purification with mass spectrometry; ESR1 immunoprecipitation compared with vector IP and ESR1 with MG132 treatment, MCF7 ESR1 overexpression model; mass spectrometry of the precipitates

- binding: binds
Substance: SQSTM1 (p62) (from UniProt Q13501 1-440)
